This note sets out measurements from publication PMC7200016.

Chains of the proteins cited; added tags and fusions are not shown.
UniProt Q23978: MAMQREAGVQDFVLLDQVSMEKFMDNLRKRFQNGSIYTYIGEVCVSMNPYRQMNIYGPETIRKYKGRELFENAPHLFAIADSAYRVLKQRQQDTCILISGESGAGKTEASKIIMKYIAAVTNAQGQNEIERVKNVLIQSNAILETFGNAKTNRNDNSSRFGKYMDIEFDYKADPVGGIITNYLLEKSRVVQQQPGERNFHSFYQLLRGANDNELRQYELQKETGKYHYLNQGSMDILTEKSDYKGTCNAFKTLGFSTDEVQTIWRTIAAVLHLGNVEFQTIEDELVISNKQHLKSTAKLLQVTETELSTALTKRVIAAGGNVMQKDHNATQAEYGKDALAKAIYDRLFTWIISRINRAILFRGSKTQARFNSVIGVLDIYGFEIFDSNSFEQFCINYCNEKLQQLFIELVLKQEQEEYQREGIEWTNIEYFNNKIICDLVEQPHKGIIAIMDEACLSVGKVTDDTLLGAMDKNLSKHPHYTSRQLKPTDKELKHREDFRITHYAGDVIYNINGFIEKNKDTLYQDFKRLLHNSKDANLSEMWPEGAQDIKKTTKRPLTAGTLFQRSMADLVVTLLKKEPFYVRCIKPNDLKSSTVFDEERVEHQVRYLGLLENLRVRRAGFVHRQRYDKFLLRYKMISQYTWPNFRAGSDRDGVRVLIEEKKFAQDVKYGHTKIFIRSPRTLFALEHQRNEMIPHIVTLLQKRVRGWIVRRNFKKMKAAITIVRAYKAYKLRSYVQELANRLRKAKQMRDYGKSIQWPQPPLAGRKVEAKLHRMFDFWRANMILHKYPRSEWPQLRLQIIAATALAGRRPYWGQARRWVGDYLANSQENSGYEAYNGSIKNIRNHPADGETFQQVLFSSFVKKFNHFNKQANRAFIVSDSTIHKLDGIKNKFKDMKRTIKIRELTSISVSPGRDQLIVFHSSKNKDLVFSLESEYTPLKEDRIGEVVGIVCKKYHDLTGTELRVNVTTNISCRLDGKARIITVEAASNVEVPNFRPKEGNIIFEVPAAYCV

No constants are given. Whether binding was seen depends on the method and setting. In cells and extracts the contact can be indirect. A result given as binding can be weak or reduced; the word gives no strength.

The target in the experiment is Full-length DAAM-PD tagged with Flag (Drosophila) (UniProt M9MSM5). Kind of experiment: co-IP; S2 cells co-expressing GFP-tagged Myo1D and a Flag-tagged protein; lysates incubated with anti-Flag coated agarose beads, intensive wash, elution in Laemmli buffer, western blot with anti-GFP and anti-Flag.

Regarding “Full-length Myo1D tagged with GFP (from UniProt Q23978 1-1011)”, the binding entry is listed as “binds”.
